From patent publication US20210087288A1
No constants are given. Whether binding was seen depends on the method and setting. Some entries that bind do so weakly or less than the wild type.

What was measured:
[1] = molecular target: Full length cyno TfR on transfected 293 cells (cynomolgus monkey); assay: FACS, supernatant on transfected 293 cells, 1 uM holo-Tf present
[2] = molecular target: Full length cyno TfR on transfected 293 cells (cynomolgus monkey); assay: FACS, 293 cells transfected with full length TfR, 1 uM holo-Tf present
[3] = molecular target: Cyno TfR extracellular domain (analogous ecd construct) (cynomolgus monkey); assay: ELISA on purified cyno TfR
[4] = molecular target: Full length human TfR on cells (transfected 293 cells; HEL cells) (human) (UniProt P02786); assay: FACS, supernatant on transfected 293 cells, 1 uM holo-Tf present
[5] = molecular target: Full length human TfR on cells (transfected 293 cells; HEL cells) (human) (UniProt P02786); assay: FACS, 293 cells transfected with full length TfR, 1 uM holo-Tf present
[6] = molecular target: Human TfR extracellular domain (ecd) containing an N-terminal His tag (human) (UniProt P02786); assay: ELISA on purified huTfR

binding [1]	binding [2]	binding [3]	binding [4]	binding [5]	binding [6]	Binder
binds	binds	binds				Mouse hybridoma clone 16G5 (antibody, V domains shown) VH: QVQLQQPGAELVRPGAAVKLSCKASGYTFTSYWMHWVKQRPGQGLEWIGEINPTNGRTNYNENFKSKATLTVDKSSSTAYMQLSSLTSEDSAVYYCARGTRAYHFWGQGTSVTVSS VL: DIQLTQTPASLSVSVGETVTITCRASENIYSNLAWYQQKQGKSPQLLVYAATDLADGVPSRFRGSGSGTQYSLKINSLQSEDFGSYYCQHFWGTPLTFGAGTKLELI
binds	binds	binds				Mouse hybridoma clone 1B12 (antibody, V domains shown) VH: EVKLVESGGGLVQPGGFLKLSCATSGFTFSDYYMYWVRQTPEKRLEWVASISNGGDNTYYPDTVKGRFTISRDNAKNTLYLQMSRLKSEDTAMYYCARQGALYDGYYRGAMDYWGQGTSVTVSS VL: QIVLTQSPAIMSASLGGRVTMTCTTSSSVPSSYFHWYQQKPGSSPKLWIYSTSNLASGVPARFSGSGSGTSYSLTISSMEAEDAATYYCHQYHRSPFTFGSGTKLEIK
binds	binds	binds				Mouse hybridoma clone 16F6 (antibody, V domains shown) VH: DVQLQESGPGLVKPSQSLSLTCTVTGNSITSEYAWNWIRQFPGNKLEWMGYISYSGTTSYNPSLKSRISITRDTSKNQLFLQLNSVTTEDTATYFCARYGYGNPATRYFDVWGAGTTVTVSS VL: DVQITQSPSYLTASPGETITINCRASKSISKYLAWYQEKPGKTNKLLIYSGSTLQSGIPSRFSGSGSGTDFTLTISNLEPEDFAMYYCQQHNEYPWTFGGGTKLEIK
binds	binds	binds				Mouse hybridoma clone 13D4 (antibody, V domains shown) VH: QVQLQQSGAELMKPGASVKISCKAAGYTFSNYWIEWVKQRPGHGLEWIGEILPGSGSTKYNEKFKGKATFTADTSSNTAYMQLSSLTSEDSAVYYCARRGGYGYDGEFAYWGQGTLVTVSA VL: DIQMTQTTSSLSASLGDRVTINCRAGQDITNYLNWFQQKPDGTVKLLIYYTSRLHSGVPSRFSGSGSGTDYSLTITNLEQEDIATYFCQQANTLPYTFGGGTKLEIK
binds	binds	binds	binds	binds	binds	Mouse hybridoma clone 10D11 (antibody, V domains shown) VH: QVQLQQSGPELVRPGVAVKISCKGSGYKFIDYGMHWVKQSHTKSLQWIGVISPYSGKTNYSQKFKGKATMTVDKSSSTAYMELARLTSEDSAIYYCARGLSGNFVMDFWGQGTSVTVSS VL: DIVLTQSPASLAVSLGQRATISCRASESVDSYGPSFMHWYQQKPGQPPKLLIYRASNLESGIPARFSGSGSRTDFTLTINPVEADDVATYYCQHSNEDPPTFGGGTRLEIK
binds	binds	binds				Mouse hybridoma clone 15D2 (antibody, V domains shown) VH: QVQLQQSGPELVRPGVSVKISCKGSGYTVTDYAMHWVKQSHAKSLEWIGVISFYSGKTNYNQKFMGKATMTVDKSSSTAYMELARLTSEDSAIYYCARGLSGNYVMDYWGQGTSVTVSS VL: DIVLTQSPASLAVSLGQRATISCRASESVDSYGNSFMHWYQQKPGQPPKLLIYRASNLESGIPARFSGSGSRTDFTLTINPVEADDVATYYCQQSNEGPPTFGGGTKLEIK
		binds				7A4 HC/8A2 LC (antibody, V domains shown) VH: QVQLQQSGPELVRPGVSVKISCKGSGYTFTDYAMHWVKQSHAKSLEWIGGISTYFGRTNYNQKFKGRATMTVDKSSSTAYMELARLTSEDSALYYCARGLSGNYVMDYWGQGTSVTVSS VL: DIVLTQSPASLAVSLGQRATISCRASESVDSYGNSFMHWYQQKPGQPPKLLIYRASNLESGIPARFSGSGSRTDFTLTINPVEADDVATYYCQQSNEGPPTFGGGTKLEIK
binds	binds	binds	binds	binds	binds	Mouse hybridoma clone 7B10 (antibody, V domains shown) VH: QVQLQQSGPELVRPGVSVKISCKGSGYTFTDYAMHWVKQSHAKSLEWIGGISTYFGRTNYNQKFKGRATMTVDKSSSTAYMELARLTSEDSALYYCARGLSGNYVMDYWGQGTSVTVSS VL: DIVLTQSPASLAVSLGQRATISCRASESVDDYGNSFMHWYQQKPGQPPKLLIYRASNLESGIPARFSGSGSRTDFTLTINPVEADDVATYYCQQSNEAPPTFGGGTKLEIR
binds	binds	binds	binds	binds	binds	Mouse hybridoma clone 7A4 (antibody, V domains shown) VH: QVQLQQSGPELVRPGVSVKISCKGSGYTFTDYAMHWVKQSHAKSLEWIGGISTYFGRTNYNQKFKGRATMTVDKSSSTAYMELARLTSEDSALYYCARGLSGNYVMDYWGQGTSVTVSS VL: DIVLTQSPASLAVSLGQRATISCRASESVDDYGNSFMHWYQQKPGQPPKLLIYRASNLESGIPARFSGSGSRTDFTLTINPVEADDVATYYCQQSNEAPPTFGGGTKLEIR
binds	binds	binds				Mouse hybridoma clone 8A2 (antibody, V domains shown) VH: QVQLQQSGPELVRPGVSVKISCKGSGYTFTDYGMHWVKQSHAKSLEWIGVISPYSGRTNYNQNFKGKATMTVDKSSSTAYLELARLTSEDSAIYYCARGLSGNYVVDYWGQGTSVTVSS VL: DIVLTQSPASLAVSLGQRATISCRASESVDSYGNSFMHWYQQKPGQPPKLLIYRASNLESGIPARFSGSGSRTDFTLTINPVEADDVATYYCQQSNEGPPTFGGGTKLEIK
binds	binds	binds				Mouse hybridoma clone 7G7 (antibody, V domains shown) VH: QVQLQQPGSELVRPGASVKLSCKASGYTFTSYWMHWVKQRHGQGLEWIGNIYPGSGSTKYDERFKSKGTLTVDTSSSTAYMHLSSLTSEDSAVYYCTRGGYDSRAWFAYWGQGTLVTVSA VL: DIVLTQSPASLAVSLGQRATISCRARQSVSTSSYSFMHWYRQKAGQPPKLLIKYASIQESGVPARFSGSGSGTDFTLNILPVEEEDTATYYCQHTWEIPFTFGSGTKLEIK
binds	binds	binds				Mouse hybridoma clone 4C2 (antibody, V domains shown) VH: QVQLQQPGSELVRPGASVKLSCKASGYTFTSYWMHWVKQRHGQGLEWIGNIYPGSGSTKYDEKFKSKGTLTVDTSSSTAYMHLSSLTSEDSAVYYCTRGGYDSRAWFAHWGQGTLVTVSA VL: DIVLTQSPASLAVSLGQRATISCRARQSVSTSSYSFMHWYQQKPGQPPKLLIKYASIQESGVPARFSGSGSGTDFTLNILPVEEEDTATYYCQHTWEIPFTFGSGTNLEIK
